These are yes or no findings as the source states them, for the method shown. In cells and extracts the contact can be indirect. Some entries that bind do so weakly or less than the wild type.

For the assay, the target named is membrane NEU1 (tagged copies NEU1-HA and NEU1-Flag) of the dimerisation experiment (human) (UniProt Q99519). As to the kind of experiment: co-IP; crude membranes of COS-7 cells transfected with NEU1 and PPCA, solubilised in 1% CHAPS with or without peptides; anti-Flag immunoprecipitation by the methods; NEU1 dimers seen as bands of 70-72 kDa on Western blot with anti-HA.

With “membrane NEU1 (tagged copies NEU1-HA and NEU1-Flag) of the dimerisation experiment (from UniProt Q99519 48-415) (enzyme)”, the binding entry is “binds”.

Values taken from publication PMC7772355.
